Among all 330,000 compounds or so, about 7,700 (2.3%) were called active. Inconclusive results, whose numbers are uncertain, are shown with a selection of clear calls. Calls come from the whole dose curve; as a rule, active = well fitted inhibition curve with a large enough effect; inconclusive = small, poorly fitted or top-dose-only effect, or effect the other way; inactive = flat fitted curve, though single readings scatter. A potency beside an inconclusive call is a rough fit, not a confirmed value.
Assay: qHTS screen for small molecules that inhibit ELG1-dependent DNA repair in human embryonic kidney (HEK293T) cells expressing luciferase-tagged ELG1; note: nearly all actives have a fitted effect of over 55% in size
Details: HEK293T ELG1-luciferase reporter, luminescence, 16 h, DNA damage induced by 5-fluorouridine; series mostly up to 46.1 µM
Outline: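 5-Fluorouridine DNA damage + compound/DMSO, 2,000 cells/well, 16 h, 37 °C/5% CO2. ONE-Glo, 30 min RT, luminescence. Readout = decrease in reporter signal.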
Potency is the fitted concentration of half-maximal effect.

| Structure (SMILES) | Potency |
| --- | --- |
| CCOC(=O)c1cnc(-c2ccccc2)nc1N | inconclusive: 6.51 µM [activator, partial curve] |
| CSc1ccc(C(=O)N2CCc3ccc(NC(=O)c4ccccn4)cc3C2)cc1 | inconclusive: 29.1 µM [inhibitor, single point] |
| Cc1cccc(-c2noc(CCc3ccccc3)n2)c1 | inconclusive: 16.4 µM [activator, partial curve] |
| Cc1ccc(S(=O)(=O)N2CCN(c3cc4c(cc3[N+](=O)[O-])n(C)c(=O)n4C)CC2)cc1 | active: 7.31 µM |
| Cc1ccc2cccc(OCC(=O)Nc3cccc(S(=O)(=O)N4CCCC4)c3)c2n1 | active: 18.3 µM |
| CCn1cc([N+](=O)[O-])c(C(=O)N2N=C(c3ccc(OC)cc3OC)CC2c2ccccc2O)n1 (configuration not stated) | inconclusive: 16.4 µM [inhibitor, single point] |
| COc1cc2c(cc1OC)CN(c1nc(-c3cccnc3)nc3ccccc13)CC2 | active: 9.2 µM |
| O=C(c1ccc2ccccc2c1)C1CCCN(S(=O)(=O)c2cccnc2)C1 (configuration not stated) | inconclusive: 29.1 µM [inhibitor, single point] |
| O=C(CN1CCOCC1)Nc1nc2ccc(Cl)cc2s1 | inactive |
| O=C(CSC1=NS(=O)(=O)c2ccccc21)Nc1ccccc1 | inactive |
| O=C(Cn1nnc(-c2ccc(NC(=O)c3ccccc3F)cc2)n1)NCc1ccc(F)cc1 | inactive |
| Cc1ccc(S(=O)(=O)c2cc3c(=O)n4ccccc4nc3n(CCc3ccccc3)c2=N)cc1 | inconclusive: 1.03 µM [activator, full curve, poor fit] |
| CC(C)COc1cccc(C(=O)N(CC(=O)Nc2ccccc2C(F)(F)F)Cc2ccco2)c1 | inconclusive: 18.3 µM [inhibitor, single point] |
| CCN(CC(=O)NCc1cccs1)C(=O)c1ccc(S(=O)(=O)N(C)c2ccccc2)cc1 | inconclusive: 20.6 µM [inhibitor, partial curve, poor fit] |
| Oc1ccc(-c2n[nH]c(=S)n2Cc2ccco2)cc1 | inactive |
| CCOC(=O)c1c(NC(=O)CSc2nncs2)sc(C)c1-c1ccccc1 | inconclusive: 23.1 µM [inhibitor, single point] |
| CCOC(=O)c1oc2ccccc2c1NC(=O)c1cccc(OC)c1 | inconclusive: 4.61 µM [inhibitor, single point] |
| O=C(O)C1CSC(c2ccccc2Cl)N1C(=O)c1ccc(Cl)cc1 (configuration not stated) | inactive |
| CSc1nc(-c2ccccc2)ccc1C(N)=O | inconclusive: 25.9 µM [activator, single point] |
| COC(=O)c1cc(S(=O)(=O)N(C)Cc2ccco2)c[nH]1 | inactive |
| Cc1ccc(C(=O)OCn2ncc(Cl)c(Cl)c2=O)cc1 | active: 7.31 µM |
| COc1ccc2c(c1)CCCN2S(=O)(=O)c1ccc(Cl)cc1 | inconclusive: 29.1 µM [inhibitor, single point] |
| COc1cccc(NC(=O)C2Cc3ccccc3CN2C(=O)c2ccco2)c1 (configuration not stated) | inconclusive: 14.6 µM [activator, partial curve] |

| Structure (SMILES) | Potency |
| --- | --- |
| CCc1ccc(/C=C2\Oc3cc(OS(C)(=O)=O)ccc3C2=O)cc1 | inactive |
| CN(C)S(=O)(=O)c1ccc(N2CCCC2)c(C(=O)Nc2nc3ccc(F)cc3s2)c1 | inconclusive: 23.1 µM [inhibitor, single point] |
| COc1cc(OC)c(NC(=O)CN(C)S(=O)(=O)c2ccc(-c3ccc(=O)[nH]n3)s2)cc1Cl | active: 6.51 µM |
| O=Cc1ccccc1OCCOc1ccc([N+](=O)[O-])cc1 | inactive |
| Cc1ccc(CSc2nc3[nH]ncc3c(=O)[nH]2)cc1 | inconclusive: 20.6 µM [activator, partial curve] |
| O=C(O)c1ccc(NC(=O)c2cn(-c3ccccc3)nc2-c2ccccc2)cc1 | inconclusive: 18.3 µM [activator, partial curve, poor fit] |
| C=CCN1C(=O)c2ccc(C(=O)N3CCN(S(=O)(=O)c4ccccc4Br)CC3)cc2C1=O | inconclusive: 6.51 µM [activator, partial curve, poor fit] |
| Cc1ccc(S(=O)(=O)N(C)Cc2ccccc2)cc1C(=O)N1CCCCC1 | inconclusive: 2.91 µM [inhibitor, partial curve, poor fit] |
| CCOc1ccc(OCc2ccc(C(=O)N3CCOCC3)cc2)cc1 | inconclusive: 5.17 µM [activator, single point] |
| C/C(=N\NC(=O)c1ccc(Br)cc1)c1ccccc1 | inconclusive: 8.2 µM [activator, partial curve] |
| Cc1ccc(S(=O)(=O)N2CCC(C(=O)Nc3ccncc3)CC2)cc1 | inconclusive: 13 µM [activator, partial curve, poor fit] |
| Cc1cc2oc(C(=O)Nc3cccnc3)c(C)c2cc1C | inconclusive: 13 µM [activator, partial curve] |
| CCC1=C(OC(=O)N(CC)CC)N2C(=O)OC(=NCC(=O)OC)[C@]2(C)[C@H]2C1=CC[C@H]1C(=O)N(CC)C(=O)[C@H]12 | inconclusive: 32.6 µM [activator, partial curve, poor fit] |
| CC(=O)c1csc(-c2ccccc2)n1 | inconclusive: 18.3 µM [activator, single point] |
| CCCC(O)(CCC)C(=O)NN(C(=O)CCl)c1cccc(C)c1 | inconclusive: 23.1 µM [inhibitor, partial curve, poor fit] |
| Cc1cc2oc(C(=O)NCc3ccccc3)cc(=O)c2cc1C | inconclusive: 1.64 µM [inhibitor, full curve] |
| CC(Nc1cccc(C(=O)NC2CC2)c1)c1nnc(-c2ccccc2)o1 (configuration not stated) | inconclusive: 4.11 µM [inhibitor, single point] |
| Cc1ccc2[nH]c(=O)c(CN(CC3COCCO3)C(=O)Nc3ccccc3F)cc2c1 (configuration not stated) | inconclusive: 29.1 µM [inhibitor, single point] |
| CCc1csc(CCNC(=O)C2CCC(=O)N(CCOC)C2)n1 (configuration not stated) | inconclusive: 23.1 µM [activator, single point] |
| O=C(Nc1ccc(F)cc1)OCCN1CCN(Cc2ccccc2)CCC1=O | inconclusive: 32.6 µM [activator, partial curve, poor fit] |
| Cc1ccc(NS(=O)(=O)c2cc(C(=O)Nc3cccc(N(C)S(C)(=O)=O)c3)ccc2C)c(C)c1 | inconclusive: 25.9 µM [inhibitor, single point] |
| O=C1NC(=Nc2ccc(Cl)cc2)SC1Cc1cc(Cl)ccc1Cl (configuration not stated) | inconclusive: 32.6 µM [inhibitor, partial curve, poor fit] |
| CC(=O)N1CCc2cc(S(=O)(=O)CCC(=O)N3CCN(c4ccccc4F)CC3)ccc21 | inactive |

Five compounds drawn at random from the list so far, as already listed:

| Structure (SMILES) | Potency |
| --- | --- |
| CCc1ccc(/C=C2\Oc3cc(OS(C)(=O)=O)ccc3C2=O)cc1 | inactive |
| Cc1ccc(CSc2nc3[nH]ncc3c(=O)[nH]2)cc1 | inconclusive: 20.6 µM [activator, partial curve] |
| COc1cc(OC)c(NC(=O)CN(C)S(=O)(=O)c2ccc(-c3ccc(=O)[nH]n3)s2)cc1Cl | active: 6.51 µM |
| CCc1csc(CCNC(=O)C2CCC(=O)N(CCOC)C2)n1 (configuration not stated) | inconclusive: 23.1 µM [activator, single point] |
| CCC1=C(OC(=O)N(CC)CC)N2C(=O)OC(=NCC(=O)OC)[C@]2(C)[C@H]2C1=CC[C@H]1C(=O)N(CC)C(=O)[C@H]12 | inconclusive: 32.6 µM [activator, partial curve, poor fit] |

More records follow:

| Structure (SMILES) | Potency |
| --- | --- |
| COc1ccc(/C(N)=N/OC(=O)CCc2ccccc2)cc1OC | inconclusive: 20.6 µM [activator, partial curve, poor fit] |
| CN(C)S(=O)(=O)c1ccc(NC(=O)Cc2ccc(S(=O)(=O)N3CCOCC3)s2)cc1 | inconclusive: 23.1 µM [inhibitor, partial curve] |
| O=C(NCCCN1CCOCC1)c1ccc(Sc2ccc(Br)cc2)c([N+](=O)[O-])c1 | inactive |
| Cc1cc(NC(=O)c2cccc(F)c2)ncc1NC(=O)c1ccco1 | inconclusive: 4.11 µM [activator, partial curve] |
| CC(OC(=O)C1CC1C)C(=O)Nc1ncc(Cl)cc1Cl (configuration not stated) | inactive |
| Cc1csc(N/N=C/c2ccc(O)c([N+](=O)[O-])c2)n1 | inconclusive: 18.4 µM [activator, single point] |
| C/C(O)=C(/N=O)C(=O)Nc1ccccc1 | inconclusive: 5.17 µM [activator, single point] |
| CCOC(=O)c1ccc(NC(=O)c2ccccc2C)cc1 | inconclusive: 18.4 µM [activator, partial curve] |
| CCOc1ccc(/C=N/Nc2cc(C)nc(N3CCOCC3)n2)cc1 | inconclusive: 23.1 µM [activator, single point] |
| N#Cc1ccccc1CSc1nnc(-c2ccncc2)o1 | inconclusive: 20.6 µM [activator, partial curve] |
| Cc1ccccc1NC(=O)CCCCCN1C(=O)[C@@H]2Cc3ccccc3CN2C1=O | inconclusive: 29.1 µM [inhibitor, single point] |
| CCC(C)(C)NC(=S)Nc1ccc(-c2nc3ccc(C)cc3s2)cc1 | inconclusive: 7.31 µM [activator, partial curve] |
| Cc1ccc(NC(=O)C2CSC3(C)CCC(=O)N23)cc1S(=O)(=O)N1CCOCC1 (configuration not stated) | inactive |
| COc1cc(/C=C(\C#N)c2ccccn2)ccc1OCC(=O)Nc1c(Cl)cccc1Cl | inconclusive: 3.26 µM [inhibitor, full curve] |
| OC(CNc1ccccc1)COc1ccc(OCC(O)CNc2ccccc2)cc1 (configuration not stated) | inconclusive: 23.1 µM [inhibitor, partial curve] |
| CC(C)(C)S(=O)(=O)c1cnc2c(-c3ccc(F)cc3)cnn2c1N | inactive |
| CC1=NOC(=O)/C1=C/c1ccc2c(c1)OCO2 | inconclusive: 25.9 µM [activator, single point] |
| O=C(CSc1ccc(Cl)cc1)NC1CCCC1 | inconclusive: 16.4 µM [activator, single point] |
| CCOC(=O)c1c(NC(=S)Nc2ccc(Cl)cc2)sc2c1CCN(C)C2 | inactive |
| COc1ccccc1NC(=O)c1ccc(NC(=O)c2cc3c(s2)CCC3)cc1 | inconclusive: 25.9 µM [inhibitor, single point] |
| COc1ccc(-c2cc(CNC(=O)CCl)on2)cc1 | inconclusive: 15.8 µM [inhibitor, single point] |

From PubChem BioAssay AID504467 (National Center for Advancing Translational Sciences (NCATS), 2011)
